At least one structure is not confirmed: it was looked up by name or label, or the drawing left a doubt.
Assay: Inhibition of the autooxidation of linoleic acid
Assay type: biochemical
Conditions: positive control, 10 mM BHT/L, 50° C.
Procedure: As a positive control (full inhibition) 10 mM butyl-hydroxytoluene (BHT)/L was introduced. Each sample was prepared in 3 replicates. […] Each sample was prepared in 3 replicates. Samples were incubated with light protection at 50° C.

## Cc1cc(C(C)(C)C)c(O)c(C(C)(C)C)c1 [BHT, butyl-hydroxytoluene]
  time of inhibition of the autooxidation of linoleic acid: 72 h

From patent US8278358B2, “Lipoic acid derivatives” (Omnica GmbH, priority 2006, dated 2012)
